{"source": "patent US20160200789A1", "about": "“IL4 CONJUGATED TO ANTIBODIES AGAINST EXTRACELLULAR MATRIX COMPONENTS” (PHILOGEN S.P.A., priority 2013, published 2016)", "binders": {"B1": {"name": "F8-IL4 (F8-(murine) IL4) (protein)", "chain": "EVQLLESGGGLVQPGGSLRLSCAASGFTFSLFTMSWVRQAPGKGLEWVSAISGSGGSTYYADSVKGRFTISRDNSKNTLYLQMNSLRAEDTAVYYCAKSTHLYLFDYWGQGTLVTVSSGGSGGEIVLTQSPGTLSLSPGERATLSCRASQSVSMPFLAWYQQKPGQAPRLLIYGASSRATGIPDRFSGSGSGTDFTLTISRLEPEDFAVYYCQQMRGRPPTFGQGTKVEIKSSSSGSSSSGSSSSGHIHGCDKNHLREIIGILNEVTGEGTPCTEMDVPNVLTATKNTTESELVCRASKVLRIFYLKHGKTPCLKKNSSVLMELQRLFRAFRCLDSSISCTMNESKSTSLKDFLESLKSIMQMDYS"}}, "biological_target": "EDA antigen (EDA domain of fibronectin) coated on the BIAcore sensor chip", "test": "SPR (BIAcore), EDA antigen-coated sensor chip", "note": "No constants are given. Whether binding was seen depends on the method and setting. Binding calls can cover weak binding; strength is not graded here.", "data": [{"binder": "B1", "values": [{"measurement": "binding", "value": "binds"}]}]}
